Test results published in PMC11005415.
These are yes or no findings as the source states them, for the method shown. In cells and extracts the contact can be indirect. Some results given as binding are weak or reduced against the parent protein; the word gives no strength. Where a sequence is shown, tags or fusion partners need not be part of it.

Target: T1, Cactin-V5 (Drosophila melanogaster) (UniProt Q9VR99)
T1 sequence: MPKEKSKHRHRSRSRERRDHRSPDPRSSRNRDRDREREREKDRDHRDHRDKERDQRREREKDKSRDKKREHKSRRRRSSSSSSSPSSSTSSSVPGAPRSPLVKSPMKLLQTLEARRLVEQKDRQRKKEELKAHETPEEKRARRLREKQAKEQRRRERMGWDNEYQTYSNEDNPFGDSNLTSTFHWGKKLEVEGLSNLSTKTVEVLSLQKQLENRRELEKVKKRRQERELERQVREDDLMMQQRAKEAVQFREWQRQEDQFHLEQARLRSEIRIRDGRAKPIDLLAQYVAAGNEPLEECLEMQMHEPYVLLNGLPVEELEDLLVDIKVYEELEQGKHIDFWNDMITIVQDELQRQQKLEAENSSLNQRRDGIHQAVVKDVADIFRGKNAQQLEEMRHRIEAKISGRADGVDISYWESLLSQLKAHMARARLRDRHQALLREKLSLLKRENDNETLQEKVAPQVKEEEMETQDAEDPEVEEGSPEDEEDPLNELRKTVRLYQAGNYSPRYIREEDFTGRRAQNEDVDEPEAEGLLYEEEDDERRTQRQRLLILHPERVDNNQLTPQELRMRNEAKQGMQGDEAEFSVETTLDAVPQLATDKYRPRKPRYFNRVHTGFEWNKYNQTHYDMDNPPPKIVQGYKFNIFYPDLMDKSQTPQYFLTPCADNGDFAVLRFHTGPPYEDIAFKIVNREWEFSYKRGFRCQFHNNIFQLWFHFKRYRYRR
Experiment: co-IP; S2 cells co-transfected with Cactin-V5 and PGK-Flag, uninfected or infected with DCV (MOI = 1, 48 h); lysis buffer 2 mM EDTA, 50 mM Tris-HCl pH 7.4, 150 mM NaCl, 1% NP-40, 20% glycerol; anti-V5 antibody with Protein A/G Agarose, 4°C; blots with anti-V5 and anti-Flag

B1: PGK-Flag (enzyme, UniProt Q01604 1-415)
chain: MAFNKLSIENLDLAGKRVLMRVDFNVPIKEGKITSNQRIVAALDSIKLALSKKAKSVVLMSHLGRPDGNKNIKYTLAPVAAELKTLLGQDVIFLSDCVGSEVEAACKDPAPGSVILLENVRFYVEEEGKGLDASGGKVKADPAKVKEFRASLAKLGDVYVNDAFGTAHRAHSSMMGDGFEQRAAGLLLNKELKYFSQALDKPPNPFLAILGGAKVADKIQLIENLLDKVNEMIIGGGMAFTFLKVLNNMKIGGSLFDEEGSKIVEKLVEKAKKNNVQLHLPVDFVCGDKFAENAAVSEATVEAGIPDGHMGLDVGPKTRELFAAPIARAKLIVWNGPPGVFEFPNFANGTKSIMDGVVAATKNGTVSIIGGGDTASCCAKWNTEALVSHVSTGGGASLELLEGKTLPGVAALTSA
binding: binds
